Measured data: PubChem BioAssay AID743458 (Peter MacCallum Cancer Centre, 2014)
The deposit covers about 1,800 reagents; shown is a part drawn at random. 732 of them (41%) count as active. 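Calls are per siRNA reagent; a gene was deemed confirmed only if most of its four siRNAs scored.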 A number with no mark means an inactive call. Reagents against one gene are numbered here. Reagent sequences are not shown.

- Screen: 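Identify genes whose loss lifts vorinostat resistance in colon cancer cells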 (follow-up of hits)
- System: human HCT116-VR colon cancer cells made resistant to vorinostat
- Knock-down reagent: single siRNA or pool against human genes, 25 nM per single siRNA
- Duration: about 72 h after transfection, including 24 h of drug
- Treatment: vorinostat, 2.5 µM final, for 24 h
- Measurement: 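Cell viability by fluorescence and apoptosis by caspase 3/7 luminescence under vorinostat, background-corrected, averaged across two plate copies and given as fold change versus mock transfection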
- Reading the numbers: viability relative to mock: higher = more living cells than mock; caspase activity relative to mock: higher = more apoptosis than mock
- Active means: 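Active means a reduced-viability or caspase-activation class, anything else inactive; classes could only be given to wells that looked healthy when left untreated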

For XKR6 (XK related 6) #1, the entry reads viability relative to mock 1.02; caspase activity relative to mock 0.99; viability hit class no change; caspase hit class no change.
For XKR6 (XK related 6) #2, the values are viability relative to mock 0.24 (active); caspase activity relative to mock 2.79; viability hit class reduced viability; caspase hit class caspase activation.
With knock-down of XKR6 (XK related 6) #3, the screen gave viability relative to mock 0.78; caspase activity relative to mock 2.02; viability hit class no change; caspase hit class no change.
Against XKR6 (XK related 6) #4, the entry reads viability relative to mock 0.73; caspase activity relative to mock 1.83; viability hit class no change; caspase hit class no change.
With knock-down of THAP3 (THAP domain containing 3) #1 the results were viability relative to mock 0.37 (active); caspase activity relative to mock 3.46; viability hit class reduced viability; caspase hit class caspase activation.
After knock-down of THAP3 (THAP domain containing 3) #2, the record shows viability relative to mock 0.63 (active); caspase activity relative to mock 2.84; viability hit class no change; caspase hit class caspase activation.
THAP3 (THAP domain containing 3) #3 scored viability relative to mock 0.51 (active); caspase activity relative to mock 5.08; viability hit class reduced viability; caspase hit class caspase activation.
Against THAP3 (THAP domain containing 3) #4 the deposit lists viability relative to mock 0.57; caspase activity relative to mock 0.66; viability hit class no change; caspase hit class no change.
GALNT12 (polypeptide N-acetylgalactosaminyltransferase 12) #1 gave viability relative to mock 0.56 (active); caspase activity relative to mock 1.91; viability hit class reduced viability; caspase hit class no change.
Knock-down of GALNT12 (polypeptide N-acetylgalactosaminyltransferase 12) #2 gave: viability relative to mock 0.85; caspase activity relative to mock 1.4; viability hit class no change; caspase hit class no change.
GALNT12 (polypeptide N-acetylgalactosaminyltransferase 12) #3 scored viability relative to mock 1; caspase activity relative to mock 1.45; viability hit class no change; caspase hit class no change.
GALNT12 (polypeptide N-acetylgalactosaminyltransferase 12) #4 gave viability relative to mock 0.31 (active); caspase activity relative to mock 3.83; viability hit class reduced viability; caspase hit class caspase activation.
With knock-down of H1-5 (H1.5 linker histone, cluster member) #1 the results were viability relative to mock 0.73; caspase activity relative to mock 2.12; viability hit class no change; caspase hit class no change.
H1-5 (H1.5 linker histone, cluster member) #2 scored viability relative to mock 0.22 (active); caspase activity relative to mock 3.39; viability hit class reduced viability; caspase hit class caspase activation.
Silencing of H1-5 (H1.5 linker histone, cluster member) #3 came out at: viability relative to mock 0.29; caspase activity relative to mock 2.1; viability hit class no change; caspase hit class no change.
Depletion of H1-5 (H1.5 linker histone, cluster member) #4 resulted in: viability relative to mock 0.6 (active); caspase activity relative to mock 5.02; viability hit class no change; caspase hit class caspase activation.
MASP2 (MBL associated serine protease 2) #1 showed viability relative to mock 0.73 (active); caspase activity relative to mock 3.04; viability hit class no change; caspase hit class caspase activation.
MASP2 (MBL associated serine protease 2) #2 scored viability relative to mock 0.65 (active); caspase activity relative to mock 3.84; viability hit class no change; caspase hit class caspase activation.
Knock-down of MASP2 (MBL associated serine protease 2) #3 came out at: viability relative to mock 0.9; caspase activity relative to mock 2.19; viability hit class no change; caspase hit class no change.
MASP2 (MBL associated serine protease 2) #4 scored viability relative to mock 0.6; caspase activity relative to mock 2.95; viability hit class no change; caspase hit class no change.
Knock-down of TANGO2 (transport and golgi organization 2 homolog) #1 came out at: viability relative to mock 0.96; caspase activity relative to mock 1.72; viability hit class no change; caspase hit class no change.
After knock-down of TANGO2 (transport and golgi organization 2 homolog) #2, the record shows viability relative to mock 0.7 (active); caspase activity relative to mock 4.06; viability hit class no change; caspase hit class caspase activation.
Depletion of TANGO2 (transport and golgi organization 2 homolog) #3 resulted in: viability relative to mock 0.31; caspase activity relative to mock 2.69; viability hit class no change; caspase hit class no change.
After knock-down of TANGO2 (transport and golgi organization 2 homolog) #4, the screen gave viability relative to mock 0.6 (active); caspase activity relative to mock 3.54; viability hit class no change; caspase hit class caspase activation.
For NDUFA7 (NADH:ubiquinone oxidoreductase subunit A7) #1, the values are viability relative to mock 0.52 (active); caspase activity relative to mock 2.92; viability hit class reduced viability; caspase hit class caspase activation.
Knock-down of NDUFA7 (NADH:ubiquinone oxidoreductase subunit A7) #2 gave: viability relative to mock 0.77; caspase activity relative to mock 2.45; viability hit class no change; caspase hit class no change.
Against NDUFA7 (NADH:ubiquinone oxidoreductase subunit A7) #3 the deposit lists viability relative to mock 0.62; caspase activity relative to mock 0.8; viability hit class no change; caspase hit class no change.
NDUFA7 (NADH:ubiquinone oxidoreductase subunit A7) #4 showed viability relative to mock 1.07; caspase activity relative to mock 1.44; viability hit class no change; caspase hit class no change.

Records above whose gene name begins with G or g:
GALNT12 (polypeptide N-acetylgalactosaminyltransferase 12) #1 — viability relative to mock = 0.56 (active); caspase activity relative to mock = 1.91; viability hit class = reduced viability; caspase hit class = no change
GALNT12 (polypeptide N-acetylgalactosaminyltransferase 12) #2 — viability relative to mock = 0.85; caspase activity relative to mock = 1.4; viability hit class = no change; caspase hit class = no change
GALNT12 (polypeptide N-acetylgalactosaminyltransferase 12) #3 — viability relative to mock = 1; caspase activity relative to mock = 1.45; viability hit class = no change; caspase hit class = no change
GALNT12 (polypeptide N-acetylgalactosaminyltransferase 12) #4 — viability relative to mock = 0.31 (active); caspase activity relative to mock = 3.83; viability hit class = reduced viability; caspase hit class = caspase activation
